Patent US10292393B2, “Mitigation of alternate bearing” (The Regents of the University of California, priority 2009, dated 2019)

Tested on: ‘Fina Sodea’ Clementine mandarin trees
Conditions: 200 trees per acre, 3-year average FOB prices

**Q.** How did the “Fruit value (cumulative income), Jumbo” value turn out when `Nc1ncnc2c1ncn2[C@@H]1O[C@H](CO)[C@@H](O)[C@H]1O` [Ado, 9-beta-D-adenosine] was run?
**A.** The value was 1149.50 a US$/acre.

**Q.** And the “Fruit value (cumulative income), L + J + Ma” value?
**A.** Its value is 3995.60 a US$/acre.

**Q.** What about the “Fruit value (cumulative income), Large” value of the same compound?
**A.** Its value is 2584.10 a US$/acre.

**Q.** And the “Fruit value (cumulative income), Mammoth” value?
**A.** The value was 262.10 US$/acre.

**Q.** And the “Fruit value (cumulative income), Medium” value?
**A.** The value was 2522.40 US$/acre.

**Q.** And the “Fruit value (cumulative income), Small” value?
**A.** Its value is 1497.80 US$/acre.

**Q.** And the “Fruit value (cumulative income), Totally” value (sum of small to mammoth)?
**A.** Its value is 8015.80 US$/acre.
